Reference: PubChem BioAssay AID274 (DTP/NCI, 2004)
The list does not hold the whole screen: it is rich in T/C values a quarter to a half above the control, in often repeated tests (any T/C) and in doses without a T/C. Further doses and runs are listed elsewhere. T/C is the treated group as % of the vehicle group. Some entries give survivors of the animals treated and no T/C: the source holds a T/C of zero for them, seemingly a mark for toxic or unscored doses. Some survivor counts are full or nearly so, which does not show that the dose was tolerated: survival well below the control is almost never listed, so the zero probably covers shortened survival too. Survivors were counted at the toxicity check, usually on the fifth day, unless a day is given; later deaths do not show. Schedules are NCI's codes, read here as Q, the interval in days (D) or hours (H), X, the number of doses. Some entries hold several experiments; their values stand side by side, smallest first. For survival time, the PubChem record calls one and a half times the control and up active, and a quarter to a half above the control has no call in these data; cut-offs in other NCI protocols can differ. Some T/C values are followed by the survivors on the day toxicity was checked, most often the fifth; where none is given, no animal had died by that day. Brackets with × count equal records among those shown.

Tested on: BDF1 mice, Lewis lung carcinoma iv, survival T/C
Experiment: NCI In Vivo Anticancer Drug Screen. Data for tumor model Lewis Lung Carcinoma (intravenous) in B6D2F1 (BDF1) mice
Details: T/C endpoint: median survival time, higher T/C = longer survival
Method: The antitumor activity of compounds was measured in mice bearing transplantable tumors. Survival or tumor size were measured and the results are expressed as the measurement made in the treated group (T) divided by the measurement made in the vehicle treated control group (C). The tumor model used in this assay is Lewis Lung Carcinoma (intravenous) in B6D2F1 (BDF1) mice

[1] = dose: 20.0 mg/kg/injection, schedule: Q01DX001 (ip), vehicle: saline
[2] = dose: 25.0 mg/kg/injection, schedule: Q01DX009 (ip), vehicle: saline with Tween-80
[3] = dose: 200.0 mg/kg/injection, schedule: Q01DX009 (ip), vehicle: Klucel (hydroxypropylcellulose) (HPC)
[4] = dose: 50.0 mg/kg/injection, schedule: Q01DX009 (ip), vehicle: saline with Tween-80
[5] = dose: 12.0 mg/kg/injection, schedule: Q01DX009 (ip), vehicle: saline
[6] = dose: 50.0 mg/kg/injection, schedule: Q01DX009 (ip), vehicle: suspension in saline
[7] = dose: 100.0 mg/kg/injection, schedule: Q01DX009 (ip), vehicle: suspension in saline
[8] = dose: 100.0 mg/kg/injection, schedule: Q01DX009 (ip), vehicle: Klucel (hydroxypropylcellulose) (HPC)
[9] = dose: 100.0 mg/kg/injection, schedule: Q01DX009 (ip), vehicle: saline with Tween-80
[10] = dose: 50.0 mg/kg/injection, schedule: Q01DX009 (ip), vehicle: Klucel (hydroxypropylcellulose) (HPC)
[11] = dose: 200.0 mg/kg/injection, schedule: Q01DX009 (ip), vehicle: saline with Tween-80

CC1CCC(NC(=O)N(CCCl)N=O)CC1 (centres undefined) was tested, and the T/C (dose: 5.0 mg/kg/injection, schedule: Q01DX001 (ip), vehicle: saline + alcohol) was 91, 100 (2×), 103 % of control, the survivor count (dose: 5.0 mg/kg/injection, schedule: Q01DX001 (ip), vehicle: saline) was 4 of 8 and the T/C (dose: 10.0 mg/kg/injection, schedule: Q01DX001 (ip), vehicle: saline + alcohol) was 95, 96 [7 of 8 alive], 100 (2×), 105, 106, 113, 142 % of control. For the same molecule, the survivor count (dose: 10.0 mg/kg/injection, schedule: Q01DX001 (ip), vehicle: saline) was 5 of 8, the T/C (dose: 20.0 mg/kg/injection, schedule: Q01DX001 (ip), vehicle: saline + alcohol) was 92, 95, 99, 110, 123, 128, 162, 235 % of control and the T/C [1] was 128 % of control. For the same molecule, the survivor count [1] was 5 of 8, the T/C (dose: 24.0 mg/kg/injection, schedule: Q01DX001 (ip), vehicle: saline with Tween-80) was 131 % of control and the T/C (dose: 30.0 mg/kg/injection, schedule: Q01DX001 (ip), vehicle: saline + alcohol) was 94, 99, 101, 103, 107, 136, 169, 237 % of control. For the same molecule, the T/C (dose: 40.0 mg/kg/injection, schedule: Q01DX001 (ip), vehicle: saline + alcohol) was 87, 100, 103 [7 of 8 alive], 104 (2×), 106, 131, 181 % of control, the survivor count (dose: 40.0 mg/kg/injection, schedule: Q01DX001 (ip), vehicle: saline) was 3 of 8 and the T/C (dose: 50.0 mg/kg/injection, schedule: Q01DX001 (ip), vehicle: saline + alcohol) was 100, 105, 131, 235 % of control.
NC(=O)c1csc(C2OC(CO)C(O)C2O)n1 (centres undefined) was tested, and the survivor count (dose: 800.0 mg/kg/injection, schedule: Q01DX009 (ip), vehicle: water) was 10 of 10.
In the case of O=C(O)c1ccc(C(=O)O)c(C(=O)O)c1.[NH-]C1CCCCC1[NH-].[Pt+2], the survivor count (dose: 6.25 mg/kg/injection, schedule: Q01DX009 (ip), vehicle: sodium bicarbonate) is reported as 10 of 10 and the survivor count (dose: 12.5 mg/kg/injection, schedule: Q01DX009 (ip), vehicle: sodium bicarbonate) is reported as 10 of 10.
For [N-]=[N+]=CC(=O)CCC(N)C(=O)O (centres undefined), the T/C (dose: 0.2 mg/kg/injection, schedule: Q01DX009 (ip), vehicle: saline) was 128 % of control, the survivor count (dose: 0.39 mg/kg/injection, schedule: Q01DX009 (ip), vehicle: saline) was 10 of 10 and the survivor count (dose: 0.78 mg/kg/injection, schedule: Q01DX009 (ip), vehicle: saline) was 10 of 10. For the same molecule, the survivor count (dose: 1.56 mg/kg/injection, schedule: Q01DX009 (ip), vehicle: saline) was 10 of 10 and the survivor count (dose: 3.13 mg/kg/injection, schedule: Q01DX009 (ip), vehicle: saline) was 8 of 10.
With CC(CN1CC(=O)NC(=O)C1)N1CC(=O)NC(=O)C1 (centres undefined) the T/C (dose: 108.0 mg/kg/injection, schedule: Q04DX003 (ip), vehicle: Klucel (hydroxypropylcellulose) (HPC)) was 129 % of control, the T/C (dose: 180.0 mg/kg/injection, schedule: Q04DX003 (ip), vehicle: Klucel (hydroxypropylcellulose) (HPC)) was 129, 134, 138 % of control and the T/C (dose: 300.0 mg/kg/injection, schedule: Q04DX003 (ip), vehicle: Klucel (hydroxypropylcellulose) (HPC)) was 140 % of control [6 of 8 alive]. The survivor count (dose: 500.0 mg/kg/injection, schedule: Q04DX003 (ip), vehicle: Klucel (hydroxypropylcellulose) (HPC)) was 8 of 8.
CC(C)(C)N1CC1CNC(=O)C(=O)NCC1CN1C(C)(C)C (centres undefined) was tested, and the survivor count [2] was 10 of 10.
COc1ccc2[nH]c3c(c2c1)CCNC3CC(C)CCC=C(C)C (centres undefined) was tested, and the survivor count [3] was 3 of 10.
For COc1cc(O)c2c(O)c3c(c4c2c1[C@]1(C4)C(C)=CCCC1(C)C)[C@H](O)[C@@]1(O)CC(=O)C(C(N)=O)=C(O)[C@@]1(O)C3=O, the survivor count [2] was 10 of 10 and the survivor count [4] was 6 of 10.
With Nc1ncn(C2OC(CO)C(O)C2O)c(=O)n1 (centres undefined) the T/C (dose: 3.0 mg/kg/injection, schedule: Q01DX009 (ip), vehicle: saline) was 139 and 149 % of control, the survivor count (dose: 6.0 mg/kg/injection, schedule: Q01DX009 (ip), vehicle: saline) was 9 of 10 and 10 of 10 and the survivor count [5] was 9 of 10 and 10 of 10. For the same molecule, the T/C [6] was 132 % of control, the T/C [7] was 139 % of control and the T/C (dose: 200.0 mg/kg/injection, schedule: Q01DX009 (ip), vehicle: suspension in saline) was 137 % of control.
For Nc1ccnc(=O)[nH]1, the T/C (dose: 64.0 mg/kg/injection, schedule: Q01DX009 (ip), vehicle: saline with Tween-80) was 134 % of control and the T/C (dose: 128.0 mg/kg/injection, schedule: Q01DX009 (ip), vehicle: saline with Tween-80) was 149 % of control.
With O=C(CCN1CC1)OCCOC(=O)CCN1CC1 the T/C [5] was 128 % of control.
For N=C(N)SCc1cccc2c(=O)cc(-c3ccccc3)oc12, the survivor count [8] was 9 of 10, the survivor count [3] was 3 of 10 and the survivor count (dose: 200.0 mg/kg/injection, schedule: Q01DX009 (ip), vehicle: saline) was 10 of 10.
In the case of CCc1ncnc2cc(OCC3CO3)c(OC)cc12 (centres undefined), the survivor count [6] is reported as 10 of 10 and the survivor count [7] is reported as 7 of 10.
For Nc1nnc[se]1, the T/C (dose: 12.5 mg/kg/injection, schedule: Q01DX009 (ip), vehicle: saline with Tween-80) was 143 % of control, the survivor count [4] was 10 of 10 and the survivor count [9] was 5 of 10.
For CCOC(=O)C(N)C[S][Sn]([CH3])([CH3])[Cl] (centres undefined), the survivor count (dose: 50.0 mg/kg/injection, schedule: Q01DX009 (ip), vehicle: saline) was 9 of 10 and the survivor count (dose: 100.0 mg/kg/injection, schedule: Q01DX009 (ip), vehicle: saline) was 0 of 10.
In the case of CCCC(=O)OCC1OC(n2cnc3c(=S)nc(N)[nH]c32)C(OC(=O)CCC)C1OC(=O)CCC (centres undefined), the survivor count (dose: 12.5 mg/kg/injection, schedule: Q01DX009 (ip), vehicle: Klucel (hydroxypropylcellulose) (HPC)) is reported as 10 of 10, the survivor count (dose: 25.0 mg/kg/injection, schedule: Q01DX009 (ip), vehicle: Klucel (hydroxypropylcellulose) (HPC)) is reported as 10 of 10 and the survivor count [10] is reported as 10 of 10. For the same molecule, the survivor count [8] was 10 of 10.
With Cc1c2ccncc2c(C)c2c1[nH]c1ccccc12 the T/C [10] was 127 % of control, the survivor count [8] was 10 of 10 and the survivor count [3] was 10 of 10.
CCCCC(=O)OCC(=O)[C@]1(O)Cc2c(O)c3c(c(O)c2[C@@H](OC2CC(NC(=O)C(F)(F)F)C(O)C(C)O2)C1)C(=O)c1c(OC)cccc1C3=O (some centres undefined) was tested, and the T/C (dose: 32.0 mg/kg/injection, schedule: Q01DX009 (ip), vehicle: distilled water + Tween-80) was 134 % of control, the survivor count (dose: 64.0 mg/kg/injection, schedule: Q01DX009 (ip), vehicle: distilled water + Tween-80) was 10 of 10 and the survivor count (dose: 128.0 mg/kg/injection, schedule: Q01DX009 (ip), vehicle: distilled water + Tween-80) was 8 of 10.
In the case of c1nc(N2CC2)c2cnn(C3CCCCO3)c2n1 (centres undefined), the survivor count [3] is reported as 3 of 10.
O=[N+]([O-])c1ccc(Sc2ccncn2)c([N+](=O)[O-])c1 was tested, and the survivor count [11] was 3 of 10.
With N=[N+]=CC(=O)OCC(N)C(=O)O (centres undefined) the survivor count (dose: 25.0 mg/kg/injection, schedule: Q01DX009 (ip), vehicle: saline) was 10 of 10.
C[CH2][Ge]([CH2]C)[CH2]C.C[CH2][Ge]([CH2]C)[CH2]C.C[CH2][Ge]([CH2]C)[O][Ge]([CH2]C)[CH2]C was tested, and the survivor count [9] was 10 of 10 and the survivor count [11] was 2 of 10.
In the case of O=C1N=C(Oc2ccccc2)SC1=O, the survivor count [9] is reported as 3 of 10, the survivor count [11] is reported as 0 of 10 and the survivor count (dose: 400.0 mg/kg/injection, schedule: Q01DX009 (ip), vehicle: saline with Tween-80) is reported as 0 of 10.
For CCCCCC(O)C1C(=O)OC(C)C(O)/C=C/C=C/C=C/C=C\C=C(\C)C(O)CC(O)CC(O)CC(O)CC(O)CC(O)CC1O (centres undefined), the survivor count (dose: 50.0 mg/kg/injection, schedule: Q01DX009 (ip), vehicle: distilled water + alcohol) was 3 of 10.
S=C(Nc1ccc(Cl)c(Cl)c1)N1c2ccccc2-n2cccc2C1c1cccnc1 (centres undefined) was tested, and the survivor count (dose: 400.0 mg/kg/injection, schedule: Q01DX009 (ip), vehicle: Klucel (hydroxypropylcellulose) (HPC)) was 8 of 10.
CN=C(N)N/N=C(\c1ccccc1)c1ccc(Br)cc1 was tested, and the survivor count [2] was 10 of 10 and the survivor count [4] was 8 of 10.
